Here are results for 4 substances from paper PMC8256295.

The chains behind the UniProt entries cited, without tags or fusion partners.
UniProt O08573: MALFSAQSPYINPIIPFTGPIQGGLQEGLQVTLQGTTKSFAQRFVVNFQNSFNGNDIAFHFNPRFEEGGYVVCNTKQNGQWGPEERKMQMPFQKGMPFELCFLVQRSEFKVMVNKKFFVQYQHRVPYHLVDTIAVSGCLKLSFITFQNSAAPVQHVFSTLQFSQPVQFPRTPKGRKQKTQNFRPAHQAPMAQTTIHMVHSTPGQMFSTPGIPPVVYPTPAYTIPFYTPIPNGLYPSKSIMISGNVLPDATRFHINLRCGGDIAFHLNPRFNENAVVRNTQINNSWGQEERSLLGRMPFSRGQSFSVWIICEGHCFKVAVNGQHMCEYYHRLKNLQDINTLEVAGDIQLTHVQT

The target in test [1] is T1, transforming growth factor β-activated kinase 1 (TAK1) (plasmid-expressed in HEK293T cells) (UniProt O43318).
T1 sequence: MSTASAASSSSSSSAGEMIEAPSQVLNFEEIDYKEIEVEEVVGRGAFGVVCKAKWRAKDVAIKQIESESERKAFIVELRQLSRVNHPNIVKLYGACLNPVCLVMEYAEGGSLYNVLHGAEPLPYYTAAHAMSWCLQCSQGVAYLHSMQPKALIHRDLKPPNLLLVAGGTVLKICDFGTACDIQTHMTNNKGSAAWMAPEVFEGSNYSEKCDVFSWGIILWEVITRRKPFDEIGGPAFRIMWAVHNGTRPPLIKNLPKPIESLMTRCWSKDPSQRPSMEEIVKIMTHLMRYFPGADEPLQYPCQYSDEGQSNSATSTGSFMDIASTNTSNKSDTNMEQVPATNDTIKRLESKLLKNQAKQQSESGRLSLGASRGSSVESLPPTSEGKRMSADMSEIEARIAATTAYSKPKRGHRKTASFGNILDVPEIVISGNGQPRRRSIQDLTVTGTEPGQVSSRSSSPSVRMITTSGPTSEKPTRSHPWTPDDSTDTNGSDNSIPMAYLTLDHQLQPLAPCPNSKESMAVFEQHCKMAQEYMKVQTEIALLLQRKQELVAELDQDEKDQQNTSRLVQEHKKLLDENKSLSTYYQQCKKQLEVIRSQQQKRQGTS
The test can be described thus: co-IP; HEK293T cells transiently transfected for 48 h; lysates incubated with anti-Flag M2 Affinity Gel and anti-GFP agarose beads at 4°C overnight; immunoblot.

The target of test [2] is T2, TAK1, endogenous in THP-1 cells (human (endogenous in THP-1)) (UniProt O43318).
T2 sequence: T1 sequence
The test can be described thus: co-IP; endogenous proteins; THP-1 cells or mouse primary peritoneal macrophages left unstimulated or stimulated with AG (1 μg/ml) for 1 h; lysates incubated with anti-TAK1 antibody and protein A/G sepharose at 4°C overnight; immunoblot.

The target in test [3] is T3, TAK1, endogenous in mouse peritoneal macrophages (mouse (endogenous in peritoneal macrophages)) (UniProt Q62073).
T3 sequence: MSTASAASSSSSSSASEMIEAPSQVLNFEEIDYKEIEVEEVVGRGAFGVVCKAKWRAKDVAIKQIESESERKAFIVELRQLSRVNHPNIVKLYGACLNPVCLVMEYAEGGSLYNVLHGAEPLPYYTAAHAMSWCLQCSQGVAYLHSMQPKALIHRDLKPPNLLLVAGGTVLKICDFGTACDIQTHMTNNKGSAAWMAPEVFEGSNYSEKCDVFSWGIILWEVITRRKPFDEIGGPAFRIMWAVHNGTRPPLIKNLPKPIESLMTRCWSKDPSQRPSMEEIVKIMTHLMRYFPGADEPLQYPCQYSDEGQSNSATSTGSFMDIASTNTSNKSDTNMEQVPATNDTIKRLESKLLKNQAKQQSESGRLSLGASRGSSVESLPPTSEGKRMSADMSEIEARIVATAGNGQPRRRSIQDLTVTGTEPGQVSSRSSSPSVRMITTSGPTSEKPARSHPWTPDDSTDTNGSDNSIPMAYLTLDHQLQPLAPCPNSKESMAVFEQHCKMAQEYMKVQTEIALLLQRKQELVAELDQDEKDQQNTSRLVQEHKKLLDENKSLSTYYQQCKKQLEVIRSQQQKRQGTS
Described as above.

A further test has as its target T4, GST-tagged TAK1 (UniProt O43318).
T4 sequence: T1 sequence
The test can be described thus: pull-down; in vitro GST precipitation: purified His-tagged galectin-9 with GST alone or GST-tagged TAK1; both purified.

Results are given in words; binding and its absence hold for the method and conditions named. For some of these results: Binding seen in cells or lysates may run through a third protein. Some entries that bind do so weakly or less than the wild type. For some of these results: Tags and fused reporters may be left off the sequences shown.

For “Galectin-9 (plasmid-expressed in HEK293T cells) (from UniProt O00182 1-355)”, the binding entry in test [1] is on record as “binds”.

In the case of “galectin-9, endogenous in THP-1 cells (from UniProt O00182 1-355)”, the binding result in test [2] was “binds”.

As to “galectin-9, endogenous in mouse peritoneal macrophages (from UniProt O08573 1-353)”, in test [3], the binding result is recorded as “binds”.

Turning to “purified histidine (His)-tagged Galectin-9 (from UniProt O00182 1-355)”, in the test with GST-tagged TAK1, the binding result is “binds”.
